Reference: the supplement of paper PMC10849652
This is one part of the list. Residues, ends and D or L forms follow the SMILES beside them. *: point of attachment. Cbz = O=C(OCc1ccccc1)*

By UniProt entry, the sequences of proteins in these tests, tags left out. Where a name states a change or a piece, a line headed by the entry shows the natural chain unless it says otherwise.
UniProt Q8N8J7: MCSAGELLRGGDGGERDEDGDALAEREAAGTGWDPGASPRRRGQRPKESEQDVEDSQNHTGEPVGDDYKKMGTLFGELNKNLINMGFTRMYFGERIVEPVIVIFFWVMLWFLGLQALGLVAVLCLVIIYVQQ
UniProt Q658Y4: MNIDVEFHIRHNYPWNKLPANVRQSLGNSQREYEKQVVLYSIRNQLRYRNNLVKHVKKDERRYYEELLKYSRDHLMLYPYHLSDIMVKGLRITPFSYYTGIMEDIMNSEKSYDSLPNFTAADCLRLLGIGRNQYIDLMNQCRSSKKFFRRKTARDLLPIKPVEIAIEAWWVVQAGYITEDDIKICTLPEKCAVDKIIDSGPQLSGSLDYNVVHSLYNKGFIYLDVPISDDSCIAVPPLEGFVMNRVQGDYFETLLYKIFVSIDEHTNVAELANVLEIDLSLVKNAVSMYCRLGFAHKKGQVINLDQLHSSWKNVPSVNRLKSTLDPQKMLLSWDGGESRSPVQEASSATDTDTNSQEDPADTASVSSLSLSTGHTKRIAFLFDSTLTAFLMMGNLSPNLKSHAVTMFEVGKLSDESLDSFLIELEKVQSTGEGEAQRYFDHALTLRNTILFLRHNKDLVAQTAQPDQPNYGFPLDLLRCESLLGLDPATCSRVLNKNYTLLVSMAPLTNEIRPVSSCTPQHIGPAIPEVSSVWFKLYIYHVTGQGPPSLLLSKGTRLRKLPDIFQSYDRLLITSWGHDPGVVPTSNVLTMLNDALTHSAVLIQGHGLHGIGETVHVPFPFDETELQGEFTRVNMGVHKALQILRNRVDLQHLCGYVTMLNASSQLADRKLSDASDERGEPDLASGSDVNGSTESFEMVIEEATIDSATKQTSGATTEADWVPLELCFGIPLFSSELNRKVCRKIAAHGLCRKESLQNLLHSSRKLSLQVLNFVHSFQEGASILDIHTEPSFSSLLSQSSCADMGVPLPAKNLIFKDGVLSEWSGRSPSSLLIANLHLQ
UniProt Q8IW50: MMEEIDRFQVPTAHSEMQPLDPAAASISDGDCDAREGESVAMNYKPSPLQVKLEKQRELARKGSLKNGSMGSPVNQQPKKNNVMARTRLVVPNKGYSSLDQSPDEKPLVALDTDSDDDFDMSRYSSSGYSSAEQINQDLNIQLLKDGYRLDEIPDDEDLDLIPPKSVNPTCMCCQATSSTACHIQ
UniProt Q9UK99: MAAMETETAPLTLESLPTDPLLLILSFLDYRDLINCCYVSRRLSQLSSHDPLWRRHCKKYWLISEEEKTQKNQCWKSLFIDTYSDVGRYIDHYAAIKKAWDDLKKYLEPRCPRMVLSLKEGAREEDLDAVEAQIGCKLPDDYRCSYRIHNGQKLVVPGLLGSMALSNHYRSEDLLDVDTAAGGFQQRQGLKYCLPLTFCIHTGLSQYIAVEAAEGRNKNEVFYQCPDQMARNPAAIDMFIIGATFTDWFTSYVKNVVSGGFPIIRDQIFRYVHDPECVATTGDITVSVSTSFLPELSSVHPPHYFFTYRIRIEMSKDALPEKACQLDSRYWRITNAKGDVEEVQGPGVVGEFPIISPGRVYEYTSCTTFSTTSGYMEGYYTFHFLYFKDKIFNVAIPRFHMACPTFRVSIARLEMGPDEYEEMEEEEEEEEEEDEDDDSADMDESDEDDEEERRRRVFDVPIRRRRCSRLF
UniProt Q9Y3I1: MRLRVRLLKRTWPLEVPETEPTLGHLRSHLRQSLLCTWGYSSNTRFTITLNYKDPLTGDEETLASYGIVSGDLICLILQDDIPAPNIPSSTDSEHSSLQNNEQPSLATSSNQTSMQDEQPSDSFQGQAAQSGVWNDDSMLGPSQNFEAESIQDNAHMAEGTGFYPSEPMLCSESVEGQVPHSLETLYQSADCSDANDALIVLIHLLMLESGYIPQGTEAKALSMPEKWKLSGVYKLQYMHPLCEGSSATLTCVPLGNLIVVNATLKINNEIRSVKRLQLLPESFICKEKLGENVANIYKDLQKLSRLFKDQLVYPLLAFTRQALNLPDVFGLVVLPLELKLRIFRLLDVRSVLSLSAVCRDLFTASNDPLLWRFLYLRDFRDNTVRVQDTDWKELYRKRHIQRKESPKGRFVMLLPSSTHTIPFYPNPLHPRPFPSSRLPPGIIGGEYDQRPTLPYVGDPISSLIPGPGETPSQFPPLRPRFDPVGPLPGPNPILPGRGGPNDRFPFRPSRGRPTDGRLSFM
UniProt Q9Y680: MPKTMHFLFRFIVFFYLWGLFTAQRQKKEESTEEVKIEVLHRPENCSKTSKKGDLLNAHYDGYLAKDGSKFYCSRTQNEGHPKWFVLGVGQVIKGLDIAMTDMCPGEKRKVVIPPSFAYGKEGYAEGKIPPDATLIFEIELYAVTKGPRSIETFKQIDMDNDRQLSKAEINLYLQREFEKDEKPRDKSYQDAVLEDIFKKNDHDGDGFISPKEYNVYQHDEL
UniProt Q00688: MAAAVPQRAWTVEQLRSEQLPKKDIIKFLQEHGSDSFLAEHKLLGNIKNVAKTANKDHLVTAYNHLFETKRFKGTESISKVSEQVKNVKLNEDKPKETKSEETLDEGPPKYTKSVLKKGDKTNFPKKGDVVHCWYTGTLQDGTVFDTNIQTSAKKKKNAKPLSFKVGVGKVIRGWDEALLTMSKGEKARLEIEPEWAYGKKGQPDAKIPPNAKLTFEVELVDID
UniProt Q6P3S6: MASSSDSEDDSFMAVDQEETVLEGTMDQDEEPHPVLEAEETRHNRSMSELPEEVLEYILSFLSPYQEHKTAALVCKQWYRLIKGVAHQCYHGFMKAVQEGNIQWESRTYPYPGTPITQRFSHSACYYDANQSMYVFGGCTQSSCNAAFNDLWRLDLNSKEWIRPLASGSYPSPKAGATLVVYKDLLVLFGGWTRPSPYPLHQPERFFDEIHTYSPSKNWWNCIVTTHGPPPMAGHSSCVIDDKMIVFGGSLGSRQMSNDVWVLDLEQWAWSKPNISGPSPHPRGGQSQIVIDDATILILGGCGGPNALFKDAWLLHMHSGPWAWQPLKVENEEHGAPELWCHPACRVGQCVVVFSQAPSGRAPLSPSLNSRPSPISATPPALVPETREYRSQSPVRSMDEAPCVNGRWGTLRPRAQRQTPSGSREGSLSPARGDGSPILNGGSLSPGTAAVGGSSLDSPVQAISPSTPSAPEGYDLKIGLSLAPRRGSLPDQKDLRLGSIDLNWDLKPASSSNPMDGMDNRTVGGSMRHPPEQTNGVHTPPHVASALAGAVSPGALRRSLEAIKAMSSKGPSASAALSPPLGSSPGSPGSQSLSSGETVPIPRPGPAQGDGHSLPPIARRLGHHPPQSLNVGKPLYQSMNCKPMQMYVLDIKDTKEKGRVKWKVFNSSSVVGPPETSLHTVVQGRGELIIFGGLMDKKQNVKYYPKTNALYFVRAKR
UniProt Q02790: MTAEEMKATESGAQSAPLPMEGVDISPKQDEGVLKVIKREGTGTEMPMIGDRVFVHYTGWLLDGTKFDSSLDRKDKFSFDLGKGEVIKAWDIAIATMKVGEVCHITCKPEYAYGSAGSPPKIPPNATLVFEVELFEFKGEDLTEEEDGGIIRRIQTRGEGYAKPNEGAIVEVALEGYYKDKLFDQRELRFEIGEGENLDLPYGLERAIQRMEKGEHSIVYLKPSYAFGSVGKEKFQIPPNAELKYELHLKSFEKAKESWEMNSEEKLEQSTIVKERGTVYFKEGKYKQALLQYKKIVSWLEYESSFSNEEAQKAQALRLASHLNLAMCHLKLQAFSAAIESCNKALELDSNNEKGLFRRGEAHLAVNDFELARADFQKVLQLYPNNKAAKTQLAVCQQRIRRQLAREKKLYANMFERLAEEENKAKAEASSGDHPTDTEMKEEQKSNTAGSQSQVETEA
UniProt Q9H9S5: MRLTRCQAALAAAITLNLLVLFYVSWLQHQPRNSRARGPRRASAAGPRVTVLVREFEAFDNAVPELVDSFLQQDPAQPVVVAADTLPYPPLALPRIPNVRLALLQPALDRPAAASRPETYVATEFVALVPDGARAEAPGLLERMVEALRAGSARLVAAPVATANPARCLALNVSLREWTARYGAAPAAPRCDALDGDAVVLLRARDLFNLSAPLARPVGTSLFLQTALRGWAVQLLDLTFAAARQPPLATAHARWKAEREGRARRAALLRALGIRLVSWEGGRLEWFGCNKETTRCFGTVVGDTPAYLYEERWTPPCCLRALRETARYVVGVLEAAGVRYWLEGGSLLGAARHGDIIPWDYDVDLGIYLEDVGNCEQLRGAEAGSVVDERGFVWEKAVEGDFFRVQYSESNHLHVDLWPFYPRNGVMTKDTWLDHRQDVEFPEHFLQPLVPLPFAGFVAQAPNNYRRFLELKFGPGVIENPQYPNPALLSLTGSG
UniProt Q9NVI1: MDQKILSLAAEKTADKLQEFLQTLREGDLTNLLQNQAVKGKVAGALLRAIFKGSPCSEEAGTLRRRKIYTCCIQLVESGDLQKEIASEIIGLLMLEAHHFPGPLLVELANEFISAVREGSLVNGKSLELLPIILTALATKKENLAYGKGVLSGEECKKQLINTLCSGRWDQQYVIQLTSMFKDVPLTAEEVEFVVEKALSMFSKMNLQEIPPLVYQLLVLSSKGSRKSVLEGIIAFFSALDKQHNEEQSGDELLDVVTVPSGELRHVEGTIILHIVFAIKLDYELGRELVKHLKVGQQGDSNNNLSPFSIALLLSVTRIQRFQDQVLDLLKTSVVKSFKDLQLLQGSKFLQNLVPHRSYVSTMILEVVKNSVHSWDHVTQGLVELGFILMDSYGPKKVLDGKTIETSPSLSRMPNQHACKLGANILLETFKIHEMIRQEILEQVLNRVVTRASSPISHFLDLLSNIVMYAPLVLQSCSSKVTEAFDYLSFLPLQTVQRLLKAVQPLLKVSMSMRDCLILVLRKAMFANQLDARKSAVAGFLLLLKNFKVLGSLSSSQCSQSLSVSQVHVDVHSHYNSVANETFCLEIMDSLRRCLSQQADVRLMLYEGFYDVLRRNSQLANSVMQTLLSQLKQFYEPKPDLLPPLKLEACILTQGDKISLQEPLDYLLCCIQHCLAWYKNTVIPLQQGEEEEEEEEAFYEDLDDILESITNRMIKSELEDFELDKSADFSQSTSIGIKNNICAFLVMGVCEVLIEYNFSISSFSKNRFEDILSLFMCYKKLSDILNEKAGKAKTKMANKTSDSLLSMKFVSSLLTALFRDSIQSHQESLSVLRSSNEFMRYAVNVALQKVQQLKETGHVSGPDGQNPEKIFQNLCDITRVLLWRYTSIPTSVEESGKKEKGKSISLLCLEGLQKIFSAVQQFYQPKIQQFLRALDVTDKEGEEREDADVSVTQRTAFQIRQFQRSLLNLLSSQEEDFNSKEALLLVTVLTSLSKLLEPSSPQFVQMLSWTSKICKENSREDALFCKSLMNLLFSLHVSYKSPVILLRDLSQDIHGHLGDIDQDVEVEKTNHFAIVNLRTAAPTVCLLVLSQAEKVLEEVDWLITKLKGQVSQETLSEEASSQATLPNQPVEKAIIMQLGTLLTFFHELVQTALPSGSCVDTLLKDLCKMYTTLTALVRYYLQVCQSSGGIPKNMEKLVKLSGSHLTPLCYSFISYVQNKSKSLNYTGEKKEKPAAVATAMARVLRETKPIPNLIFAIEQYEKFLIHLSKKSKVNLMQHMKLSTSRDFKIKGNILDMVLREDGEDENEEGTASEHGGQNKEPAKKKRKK
UniProt Q9UKT8: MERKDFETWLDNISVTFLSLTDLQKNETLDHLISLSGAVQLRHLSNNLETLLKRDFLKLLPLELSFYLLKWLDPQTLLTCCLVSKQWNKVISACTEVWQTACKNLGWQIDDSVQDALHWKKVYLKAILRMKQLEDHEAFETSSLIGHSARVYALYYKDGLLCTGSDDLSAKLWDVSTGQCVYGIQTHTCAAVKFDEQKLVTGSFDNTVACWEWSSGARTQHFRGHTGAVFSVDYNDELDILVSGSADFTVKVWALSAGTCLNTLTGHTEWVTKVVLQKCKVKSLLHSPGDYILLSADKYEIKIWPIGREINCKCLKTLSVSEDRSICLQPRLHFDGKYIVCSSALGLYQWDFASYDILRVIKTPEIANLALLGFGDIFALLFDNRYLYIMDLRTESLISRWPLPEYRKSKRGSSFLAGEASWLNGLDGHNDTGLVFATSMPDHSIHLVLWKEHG
UniProt P14324: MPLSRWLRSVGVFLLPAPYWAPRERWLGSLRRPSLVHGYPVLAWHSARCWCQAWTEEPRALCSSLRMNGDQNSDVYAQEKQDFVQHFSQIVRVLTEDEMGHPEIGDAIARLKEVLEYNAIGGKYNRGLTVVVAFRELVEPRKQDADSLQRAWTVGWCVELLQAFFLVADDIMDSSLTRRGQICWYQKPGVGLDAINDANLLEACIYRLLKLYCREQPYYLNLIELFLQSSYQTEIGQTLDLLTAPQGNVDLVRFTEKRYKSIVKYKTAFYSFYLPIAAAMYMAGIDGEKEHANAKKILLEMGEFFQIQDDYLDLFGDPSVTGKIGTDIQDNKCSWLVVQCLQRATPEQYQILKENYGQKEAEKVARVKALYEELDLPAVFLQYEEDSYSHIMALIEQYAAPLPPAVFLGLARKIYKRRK

What was measured:
Test in all cases: log2 fold change, soluble protein after heating vs DMSO (PISA); higher = thermal stabilisation; K562 cells, 10 uM, 30 min; active = over 0.2 and 3.5 SD of the protein, either way, in both replicates (recomputed)
erlotinib = compound: C#Cc1cccc(Nc2ncnc3cc(OCCOC)c(OCCOC)cc23)c1 [erlotinib]
Outline: (§1)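 Thermal stability values are relative to control samples and come from duplicates. They are expressed as log2 fold changes. For measurement, K562 cells (2×10^6 cells/mL) received 10 μM compound for 30 min, and aliquots were heated for 3 min over 48°C-58°C, pooled, and extracted at 4°C in PBS with 0.5% NP-40. Soluble protein, the supernatant after 21,000xg for 90 min, was quantified by TMTpro 16plex LC-MS/MS with equalised channel sums.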

[1] = compound: C/C(=N\NC(=O)C1=CC(=CC=C1)S(=O)(=O)N2CCOCC2)/C3=C(C=CC(=C3)Cl)O
Outline: as §1

[2] = compound: C1=CC(=CC=C1C2=NC3=C(N2)C=C(C=C3)C(=O)N)OC4=CC=C(C=C4)Cl
Outline: as §1

[3] = compound: C1=CC2=C(C=CC(=C2)/C=C\3/C(=O)NC(=NCC4=CC=CS4)S3)N=C1
Outline: as §1

[4] = compound: C1=CC2=NC=CN=C2C=C1/C=C/3\C(=O)NC(=O)S3
Outline: as §1

[5] = compound: C1=CC=C(C=C1)C2=NC(=C(N2)C3=CC=NC=C3)C4=CC(=C(C=C4)Cl)O
Outline: as §1

[6] = compound: C1=CC=C2C(=C1)C3=NNC4=CC=CC(=C43)C2=O
Outline: as §1

[7] = compound: C1CCN(C1)C(=O)NC2=CC=CC(=C2)NC3=NC=C(C(=N3)NCCC4=CN=CN4)Br
Outline: as §1

[8] = compound: C1CN(CCC1(CC2=CC=C(C=C2)Cl)N)C3=NC=NC4=C3C=CN4
Outline: as §1

IRAK-1-4 Inhibitor I = compound: C1COCCN1CCN2C3=CC=CC=C3N=C2NC(=O)C4=CC(=CC=C4)[N+](=O)[O-] [IRAK-1-4 Inhibitor I]
Outline: as §1

ibrutinib = compound: C=CC(=O)N1CCC[C@@H](n2nc(-c3ccc(Oc4ccccc4)cc3)c3c(N)ncnc32)C1 [ibrutinib]
Outline: as §1

[9] = compound: CC(=O)c1cnc2ccc(-c3cc(Cl)c(O)c(Cl)c3)nc2c1N[C@H]1CC[C@H](CN(C)C)CC1
Outline: as §1

ralimetinib = compound: CC(C)(C)Cn1c(N)nc2ccc(-c3[nH]c(C(C)(C)C)nc3-c3ccc(F)cc3)nc21 [ralimetinib]
Outline: as §1

[10] = compound: CC(C)C1=C2N=C(C=C(N2N=C1)NCC3=CC=CC=C3)NCCCCCCN
Outline: as §1

[11] = compound: CC(C)C[C@@H](C=O)NC(=O)[C@H](CC(C)C)NC(=O)[C@H](CC(C)C)NC(=O)OCc1ccccc1
Outline: as §1

pinometostat = compound: CC(C)N(C[C@H]1O[C@@H](n2cnc3c(N)ncnc32)[C@H](O)[C@@H]1O)[C@H]1C[C@@H](CCc2nc3cc(C(C)(C)C)ccc3[nH]2)C1 [pinometostat]
Outline: as §1

[12] = compound: CC1=C(C2=C(C=C1)C(=O)C3=CC=CC=C3N2CCCN)C
Outline: as §1

[13] = compound: C1=CC(=C(C=C1Cl)C2=NC3=NC=CN=C3C(=N2)NC4=CC=NC=C4)F
Outline: as §1

[14] = compound: CC(C)(O)CC(=O)NCCn1ccc2ncnc(Nc3ccc(Oc4cccc(C(F)(F)F)c4)c(Cl)c3)c21
Outline: as §1

[15] = compound: CC1=C(C(CC(=O)N1)C2=CC=C(C=C2)C(F)(F)F)C(=O)NC3=C(C=C4C(=C3)C=NN4)F
Outline: as §1

Measured: log2 fold change

FAM241A (UniProt Q8N8J7)
inactive: erlotinib -0.012 | [1] -0.005 | [2] 0.044 | [3] -0.076 | [4] 0.043 | [5] -0.014 | [6] 0.012 | [7] 0.016 | [8] 0.045 | IRAK-1-4 Inhibitor I 0.011 | ibrutinib -0.094 | [9] 0.063 | ralimetinib -0.019 | [10] -0.008 | [11] 0.004 | pinometostat -0.029 | [12] -0.008

FAM91A1 (UniProt Q658Y4)
inactive: erlotinib 0.005 | [1] 0.019 | [13] 0.168 | [2] 0.082 | [3] 0.019 | [4] -0.017 | [5] -0.033 | [6] 0.069 | [7] -0.057 | [8] -0.152 | IRAK-1-4 Inhibitor I 0.092 | ibrutinib -0.025 | [9] -0.025 | ralimetinib 0.076 | [14] -0.198 | [10] -0.041 | [11] 0 | pinometostat 0.134 | [12] 0.083

FAM83D (UniProt Q9H4H8)
inactive: erlotinib 0.035 | [1] 0.027 | [13] -0.124 | [2] -0.015 | [3] -0.016 | [4] 0.02 | [5] 0.086 | [6] 0.059 | [7] -0.071 | [8] -0.062 | IRAK-1-4 Inhibitor I 0 | ibrutinib -0.094 | [9] 0.022 | ralimetinib 0.145 | [14] -0.035 | [10] -0.232 | [11] -0.062 | pinometostat 0.041 | [12] 0.1

FAM219A (UniProt Q8IW50)
inactive: erlotinib 0.028 | [1] 0.002 | [13] -0.033 | [2] 0.057 | [3] 0.074 | [4] 0.018 | [6] -0.03 | [7] -0.017 | [8] -0.034 | IRAK-1-4 Inhibitor I -0.07 | ibrutinib 0.023 | [9] -0.009 | [14] 0.041 | [10] -0.035 | pinometostat 0.003 | [15] -0.046 | [12] 0.041

FBXO3 (UniProt Q9UK99)
inactive: erlotinib 0.01 | [1] 0.044 | [13] 0.141 | [2] -0.018 | [3] -0.038 | [4] 0.062 | [5] 0.112 | [6] -0.003 | [7] -0.029 | [8] 0.002 | IRAK-1-4 Inhibitor I 0.038 | ibrutinib -0.003 | [9] -0.008 | ralimetinib 0.171 | [14] 0.021 | [10] -0.014 | [11] 0.031 | pinometostat 0 | [12] -0.047

FHOD1 (UniProt Q9Y613)
inactive: erlotinib -0.002 | [1] -0.259 | [13] -0.337 | [2] -0.059 | [3] 0.059 | [4] 0.146 | [5] -0.034 | [6] -0.007 | IRAK-1-4 Inhibitor I -0.053 | ibrutinib 0.011 | [9] 0.042 | ralimetinib 0.193 | [14] 0.035 | [10] -0.197 | [11] 0.148 | pinometostat 0.458

Two entries drawn at random from the list so far, as already listed:
FAM219A (UniProt Q8IW50)
inactive: erlotinib 0.028 | [1] 0.002 | [13] -0.033 | [2] 0.057 | [3] 0.074 | [4] 0.018 | [6] -0.03 | [7] -0.017 | [8] -0.034 | IRAK-1-4 Inhibitor I -0.07 | ibrutinib 0.023 | [9] -0.009 | [14] 0.041 | [10] -0.035 | pinometostat 0.003 | [15] -0.046 | [12] 0.041

FHOD1 (UniProt Q9Y613)
inactive: erlotinib -0.002 | [1] -0.259 | [13] -0.337 | [2] -0.059 | [3] 0.059 | [4] 0.146 | [5] -0.034 | [6] -0.007 | IRAK-1-4 Inhibitor I -0.053 | ibrutinib 0.011 | [9] 0.042 | ralimetinib 0.193 | [14] 0.035 | [10] -0.197 | [11] 0.148 | pinometostat 0.458

Carrying on.

FBXO7 (UniProt Q9Y3I1)
inactive: erlotinib 0.039 | [1] 0.033 | [13] 0.014 | [2] -0.055 | [3] 0.033 | [4] -0.038 | [5] 0.001 | [6] -0.014 | [7] 0.005 | [8] 0 | IRAK-1-4 Inhibitor I -0.008 | ibrutinib 0.036 | [9] -0.024 | ralimetinib -0.005 | [14] -0.068 | [10] 0.001 | [11] -0.013 | pinometostat 0.042 | [12] 0.044

FKBP7 (UniProt Q9Y680)
inactive: erlotinib -0.027 | [1] -0.027 | [13] 0.005 | [2] 0.037 | [3] 0 | [4] 0.081 | [5] -0.037 | [6] -0.042 | [7] 0.039 | [8] 0.048 | IRAK-1-4 Inhibitor I 0.018 | ibrutinib 0.033 | [9] -0.031 | ralimetinib -0.033 | [14] 0.017 | [10] 0.055 | [11] -0.005 | pinometostat -0.059 | [12] -0.022

FKBP3 (UniProt Q00688)
inactive: erlotinib -0.001 | [1] 0.014 | [13] 0.061 | [2] -0.012 | [3] 0.013 | [4] -0.004 | [5] -0.028 | [6] -0.001 | [7] -0.007 | [8] -0.017 | IRAK-1-4 Inhibitor I 0.01 | ibrutinib 0.009 | [9] 0.016 | ralimetinib 0.001 | [14] -0.028 | [10] 0.023 | [11] -0.014 | pinometostat -0.057 | [12] -0.004

FBXO42 (UniProt Q6P3S6)
inactive: erlotinib 0.026 | [1] -0.006 | [13] -0.002 | [2] 0.025 | [3] 0.025 | [4] 0.055 | [5] 0.051 | [6] -0.006 | [7] -0.05 | [8] -0.024 | IRAK-1-4 Inhibitor I -0.103 | ibrutinib -0.009 | [9] -0.108 | ralimetinib -0.064 | [14] -0.093 | [10] -0.169 | [11] 0.011 | pinometostat -0.051 | [12] 0.086

FCHO1 (UniProt O14526)
inactive: erlotinib 0.065 | [1] 0.104 | [13] -0.032 | [2] -0.011 | [3] 0.07 | [5] -0.144 | [6] -0.061 | [7] -0.005 | [8] -0.029 | IRAK-1-4 Inhibitor I -0.114 | ralimetinib -0.081 | [14] -0.073 | [10] 0.045 | [11] 0.191 | pinometostat 0.05 | [12] -0.011
active: [9] -0.593

FKBP4 (UniProt Q02790)
inactive: erlotinib -0.04 | [1] 0.07 | [13] 0.055 | [2] -0.042 | [3] 0.017 | [4] 0.007 | [5] 0.036 | [6] 0.047 | [7] 0.016 | [8] -0.033 | IRAK-1-4 Inhibitor I 0 | ibrutinib -0.005 | [9] -0.006 | ralimetinib -0.016 | [14] -0.036 | [10] -0.094 | [11] 0.002 | pinometostat -0.032 | [12] 0.013

FKRP (UniProt Q9H9S5)
inactive: erlotinib 0.009 | [1] 0.059 | [13] -0.006 | [2] -0.015 | [3] 0.053 | [4] 0.041 | [5] -0.053 | [6] -0.017 | [7] -0.017 | [8] -0.087 | ibrutinib 0.032 | [9] 0 | ralimetinib 0.022 | [14] 0.119 | [10] 0.158 | [11] -0.112 | [15] 0.019 | [12] 0.056

FANCI (UniProt Q9NVI1)
inactive: erlotinib 0.083 | [1] 0.026 | [13] 0.056 | [2] 0.062 | [3] 0.142 | [4] 0.008 | [5] 0.053 | [6] -0.019 | [7] -0.028 | [8] -0.006 | IRAK-1-4 Inhibitor I -0.043 | ibrutinib -0.082 | [9] -0.148 | ralimetinib -0.008 | [14] -0.146 | [11] -0.136 | pinometostat 0.006 | [12] -0.098
active: [10] -0.377

FNTA (UniProt P49354)
inactive: erlotinib 0.245 | [1] -0.033 | [13] 0.116 | [2] -0.017 | [3] 0.075 | [4] -0.009 | [5] 0.051 | [6] -0.034 | [7] 0.065 | [8] 0.106 | IRAK-1-4 Inhibitor I 0.052 | ibrutinib 0.107 | [9] 0.081 | ralimetinib -0.05 | [14] -0.023 | [10] 0.016 | [11] -0.031 | pinometostat -0.018 | [12] -0.074

FASTKD5 (UniProt Q7L8L6)
inactive: erlotinib 0.231 | [1] -0.042 | [13] -0.002 | [2] -0.132 | [3] 0.278 | [4] -0.136 | [5] 0.02 | [6] -0.101 | [7] -0.214 | [8] 0.073 | ibrutinib 0.09 | [9] -0.207 | ralimetinib -0.146 | [14] 0.051 | [10] -0.23 | [11] -0.244 | [12] 0.115

FBXW2 (UniProt Q9UKT8)
inactive: erlotinib -0.012 | [1] -0.059 | [13] 0.091 | [2] 0.269 | [3] 0.063 | [4] -0.129 | [5] -0.184 | [6] 0.011 | [7] 0.061 | [8] 0.136 | IRAK-1-4 Inhibitor I -0.051 | ibrutinib 0.091 | [9] -0.02 | ralimetinib -0.188 | [14] -0.032 | [10] -0.053 | [11] 0.134 | pinometostat 0.074 | [12] 0.042

FDPS (UniProt P14324)
active: [10] -0.63
inactive: erlotinib 0.18 | [1] 0.174 | [13] -0.022 | [2] 0.067 | [3] 0.3 | [4] -0.026 | [5] 0.06 | [6] 0.186 | [7] 0.006 | [8] -0.309 | IRAK-1-4 Inhibitor I -0.127 | ibrutinib -0.066 | [9] -0.096 | ralimetinib 0.048 | [14] -0.319 | [11] -0.028 | pinometostat 0.048 | [12] 0.083
